This passage reports binding results from paper PMC11188183.

Amino acid sequences for entries named in this document (tags omitted).
UniProt P13647: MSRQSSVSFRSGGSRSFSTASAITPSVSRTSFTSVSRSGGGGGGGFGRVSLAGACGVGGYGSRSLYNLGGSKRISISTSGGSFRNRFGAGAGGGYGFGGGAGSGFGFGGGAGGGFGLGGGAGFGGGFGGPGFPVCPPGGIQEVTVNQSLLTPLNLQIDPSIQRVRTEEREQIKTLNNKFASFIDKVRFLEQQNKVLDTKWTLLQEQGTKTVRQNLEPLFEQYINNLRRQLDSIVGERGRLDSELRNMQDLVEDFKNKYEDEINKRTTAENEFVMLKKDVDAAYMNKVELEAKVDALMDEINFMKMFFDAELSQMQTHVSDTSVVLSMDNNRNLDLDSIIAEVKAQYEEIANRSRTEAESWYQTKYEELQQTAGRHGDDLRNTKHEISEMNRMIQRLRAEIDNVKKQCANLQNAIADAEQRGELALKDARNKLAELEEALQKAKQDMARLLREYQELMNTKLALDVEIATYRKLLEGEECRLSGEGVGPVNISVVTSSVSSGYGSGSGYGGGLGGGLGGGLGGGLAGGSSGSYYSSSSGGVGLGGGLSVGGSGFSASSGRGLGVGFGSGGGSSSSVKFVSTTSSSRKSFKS
UniProt P16401: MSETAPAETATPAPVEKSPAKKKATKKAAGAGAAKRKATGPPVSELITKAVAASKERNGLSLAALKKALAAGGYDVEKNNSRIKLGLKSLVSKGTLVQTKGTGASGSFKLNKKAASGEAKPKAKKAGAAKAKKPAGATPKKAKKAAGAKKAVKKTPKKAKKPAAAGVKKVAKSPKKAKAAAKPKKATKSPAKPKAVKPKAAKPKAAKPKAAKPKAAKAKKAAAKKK
UniProt P04264: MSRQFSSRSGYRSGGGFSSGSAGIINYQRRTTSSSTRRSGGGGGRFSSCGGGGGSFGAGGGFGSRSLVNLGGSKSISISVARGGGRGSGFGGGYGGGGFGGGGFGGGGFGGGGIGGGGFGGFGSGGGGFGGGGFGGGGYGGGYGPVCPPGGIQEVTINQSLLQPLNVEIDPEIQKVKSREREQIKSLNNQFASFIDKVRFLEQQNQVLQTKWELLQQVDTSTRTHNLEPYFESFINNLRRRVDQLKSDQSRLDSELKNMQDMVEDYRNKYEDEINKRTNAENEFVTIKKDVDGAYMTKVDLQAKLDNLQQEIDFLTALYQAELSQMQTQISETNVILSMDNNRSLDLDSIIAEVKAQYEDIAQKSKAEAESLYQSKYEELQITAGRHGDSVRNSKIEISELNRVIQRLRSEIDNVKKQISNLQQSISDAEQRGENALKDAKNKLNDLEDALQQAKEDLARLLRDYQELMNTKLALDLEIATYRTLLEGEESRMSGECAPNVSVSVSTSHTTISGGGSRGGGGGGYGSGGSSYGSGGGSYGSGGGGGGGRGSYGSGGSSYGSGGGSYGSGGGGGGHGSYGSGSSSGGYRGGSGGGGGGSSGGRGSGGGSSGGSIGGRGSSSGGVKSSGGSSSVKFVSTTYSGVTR
UniProt P48668: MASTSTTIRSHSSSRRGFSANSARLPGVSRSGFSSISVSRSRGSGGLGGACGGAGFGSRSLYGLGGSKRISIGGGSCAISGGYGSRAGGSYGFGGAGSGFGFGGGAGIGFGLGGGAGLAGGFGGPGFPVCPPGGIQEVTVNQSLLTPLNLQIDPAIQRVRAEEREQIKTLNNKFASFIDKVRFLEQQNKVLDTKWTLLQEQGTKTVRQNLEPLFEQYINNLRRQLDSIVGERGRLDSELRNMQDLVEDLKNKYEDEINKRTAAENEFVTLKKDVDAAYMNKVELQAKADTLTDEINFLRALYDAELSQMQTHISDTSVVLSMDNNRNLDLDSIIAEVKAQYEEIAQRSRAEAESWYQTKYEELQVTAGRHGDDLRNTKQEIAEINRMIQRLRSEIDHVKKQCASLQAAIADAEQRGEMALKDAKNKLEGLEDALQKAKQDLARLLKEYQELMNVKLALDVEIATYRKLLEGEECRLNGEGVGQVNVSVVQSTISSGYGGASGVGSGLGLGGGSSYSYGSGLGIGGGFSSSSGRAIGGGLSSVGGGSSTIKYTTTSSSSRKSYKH
UniProt P06748: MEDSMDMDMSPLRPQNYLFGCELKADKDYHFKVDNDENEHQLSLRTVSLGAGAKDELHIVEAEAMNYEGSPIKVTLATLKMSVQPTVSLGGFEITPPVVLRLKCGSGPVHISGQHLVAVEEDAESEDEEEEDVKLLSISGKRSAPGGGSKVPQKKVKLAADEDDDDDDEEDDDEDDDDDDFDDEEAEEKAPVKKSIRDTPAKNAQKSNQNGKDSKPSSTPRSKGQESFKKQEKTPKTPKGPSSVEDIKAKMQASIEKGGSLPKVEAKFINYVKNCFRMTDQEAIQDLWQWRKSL
UniProt P02538: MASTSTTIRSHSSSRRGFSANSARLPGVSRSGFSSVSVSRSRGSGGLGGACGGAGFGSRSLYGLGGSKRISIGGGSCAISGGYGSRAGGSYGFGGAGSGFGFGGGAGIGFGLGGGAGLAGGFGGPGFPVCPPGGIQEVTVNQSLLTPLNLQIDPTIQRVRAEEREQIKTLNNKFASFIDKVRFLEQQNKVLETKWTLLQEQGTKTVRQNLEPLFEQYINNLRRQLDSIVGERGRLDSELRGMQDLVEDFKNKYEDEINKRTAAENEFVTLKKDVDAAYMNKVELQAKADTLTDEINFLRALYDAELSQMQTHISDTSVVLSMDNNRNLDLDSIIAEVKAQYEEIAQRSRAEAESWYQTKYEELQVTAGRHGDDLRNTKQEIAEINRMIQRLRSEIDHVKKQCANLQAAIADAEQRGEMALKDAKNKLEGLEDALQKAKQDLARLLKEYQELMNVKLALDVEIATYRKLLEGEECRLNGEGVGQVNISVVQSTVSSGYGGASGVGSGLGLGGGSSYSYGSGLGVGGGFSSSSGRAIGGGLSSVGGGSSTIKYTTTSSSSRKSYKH
UniProt P35908: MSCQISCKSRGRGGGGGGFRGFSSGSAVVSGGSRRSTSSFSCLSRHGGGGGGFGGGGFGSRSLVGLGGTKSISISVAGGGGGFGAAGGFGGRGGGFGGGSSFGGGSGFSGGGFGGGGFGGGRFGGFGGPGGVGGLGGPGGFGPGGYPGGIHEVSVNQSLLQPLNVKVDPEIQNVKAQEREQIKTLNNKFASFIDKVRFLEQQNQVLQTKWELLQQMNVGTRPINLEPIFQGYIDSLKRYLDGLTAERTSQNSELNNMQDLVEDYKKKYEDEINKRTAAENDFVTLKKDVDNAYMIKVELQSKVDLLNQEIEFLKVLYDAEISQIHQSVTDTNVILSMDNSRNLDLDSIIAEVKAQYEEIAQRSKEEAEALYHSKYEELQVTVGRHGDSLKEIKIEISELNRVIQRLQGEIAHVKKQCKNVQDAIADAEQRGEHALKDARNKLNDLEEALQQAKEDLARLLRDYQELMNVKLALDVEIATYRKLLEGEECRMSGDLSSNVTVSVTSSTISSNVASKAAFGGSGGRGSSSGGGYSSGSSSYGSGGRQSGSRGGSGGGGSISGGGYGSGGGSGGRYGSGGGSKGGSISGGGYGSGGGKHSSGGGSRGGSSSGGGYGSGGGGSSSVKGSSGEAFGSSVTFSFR
UniProt P13645: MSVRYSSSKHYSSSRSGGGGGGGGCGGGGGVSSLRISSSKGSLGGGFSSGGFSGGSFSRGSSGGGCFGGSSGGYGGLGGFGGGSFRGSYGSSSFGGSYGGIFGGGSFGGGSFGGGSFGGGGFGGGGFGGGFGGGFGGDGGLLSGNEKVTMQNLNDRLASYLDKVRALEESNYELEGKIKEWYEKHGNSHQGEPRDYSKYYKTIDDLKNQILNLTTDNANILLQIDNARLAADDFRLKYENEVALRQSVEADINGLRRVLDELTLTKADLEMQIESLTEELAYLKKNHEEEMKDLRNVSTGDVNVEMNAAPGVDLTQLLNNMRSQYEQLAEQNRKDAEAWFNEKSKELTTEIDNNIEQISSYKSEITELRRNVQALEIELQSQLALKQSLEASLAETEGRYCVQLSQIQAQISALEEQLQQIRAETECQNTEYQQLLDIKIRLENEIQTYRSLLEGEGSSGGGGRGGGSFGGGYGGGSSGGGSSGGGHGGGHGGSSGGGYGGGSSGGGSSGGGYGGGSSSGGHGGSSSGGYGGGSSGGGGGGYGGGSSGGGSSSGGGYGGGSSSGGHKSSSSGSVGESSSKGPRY
UniProt P16402: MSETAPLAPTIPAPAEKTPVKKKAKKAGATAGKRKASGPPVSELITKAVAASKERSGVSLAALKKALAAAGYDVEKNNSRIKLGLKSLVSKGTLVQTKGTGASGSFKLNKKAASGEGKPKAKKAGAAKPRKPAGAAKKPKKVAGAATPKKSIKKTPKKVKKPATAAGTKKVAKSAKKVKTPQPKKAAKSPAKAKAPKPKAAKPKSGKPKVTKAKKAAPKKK
UniProt P16403: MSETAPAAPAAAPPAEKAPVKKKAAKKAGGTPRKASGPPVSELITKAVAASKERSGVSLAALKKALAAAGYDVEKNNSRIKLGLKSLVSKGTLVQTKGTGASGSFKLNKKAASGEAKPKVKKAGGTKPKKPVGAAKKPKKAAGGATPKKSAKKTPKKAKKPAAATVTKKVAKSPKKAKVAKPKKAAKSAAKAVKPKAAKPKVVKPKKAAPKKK
UniProt P04259: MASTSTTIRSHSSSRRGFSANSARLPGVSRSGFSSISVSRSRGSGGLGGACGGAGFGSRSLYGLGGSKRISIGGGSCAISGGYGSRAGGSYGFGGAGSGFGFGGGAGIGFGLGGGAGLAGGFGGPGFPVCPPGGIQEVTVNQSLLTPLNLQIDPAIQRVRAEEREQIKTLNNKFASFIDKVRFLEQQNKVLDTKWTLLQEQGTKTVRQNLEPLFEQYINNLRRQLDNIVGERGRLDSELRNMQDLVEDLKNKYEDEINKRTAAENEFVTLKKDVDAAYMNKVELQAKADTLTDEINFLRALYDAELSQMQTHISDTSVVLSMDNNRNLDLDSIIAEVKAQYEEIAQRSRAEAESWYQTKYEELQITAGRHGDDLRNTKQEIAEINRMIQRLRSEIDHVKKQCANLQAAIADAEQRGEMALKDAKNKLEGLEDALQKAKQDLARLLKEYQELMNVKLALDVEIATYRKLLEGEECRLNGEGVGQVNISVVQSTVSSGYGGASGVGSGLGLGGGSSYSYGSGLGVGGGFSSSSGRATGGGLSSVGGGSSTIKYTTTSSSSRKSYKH

The target in experiment [1] is T1, kinesin family member C1 (KIFC1) (human) (UniProt Q9BW19).
T1 sequence: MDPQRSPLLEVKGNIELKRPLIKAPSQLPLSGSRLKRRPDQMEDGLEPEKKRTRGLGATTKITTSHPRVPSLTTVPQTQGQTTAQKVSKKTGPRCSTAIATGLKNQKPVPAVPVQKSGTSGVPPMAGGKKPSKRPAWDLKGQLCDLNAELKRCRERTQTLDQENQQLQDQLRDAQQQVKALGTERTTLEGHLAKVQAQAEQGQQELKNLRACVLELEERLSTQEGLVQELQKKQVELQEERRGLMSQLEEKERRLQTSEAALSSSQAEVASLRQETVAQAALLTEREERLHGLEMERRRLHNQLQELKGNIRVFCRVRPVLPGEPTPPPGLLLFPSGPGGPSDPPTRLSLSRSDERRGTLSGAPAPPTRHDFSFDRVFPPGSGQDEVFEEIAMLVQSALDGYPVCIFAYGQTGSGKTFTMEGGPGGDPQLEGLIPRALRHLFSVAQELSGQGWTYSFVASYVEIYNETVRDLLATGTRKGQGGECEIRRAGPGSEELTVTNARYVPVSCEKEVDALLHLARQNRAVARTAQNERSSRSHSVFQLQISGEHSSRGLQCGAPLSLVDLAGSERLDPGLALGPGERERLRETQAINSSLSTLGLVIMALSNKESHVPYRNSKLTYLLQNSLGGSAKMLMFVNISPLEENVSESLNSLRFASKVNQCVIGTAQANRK
The experiment can be described thus: affinity purification with mass spectrometry; anti-KIFC1 antibody (Abcam ab172620) crosslinked to magnetic beads; nuclear lysate of MDA-MB-231 (EA) cells; LC-MS/MS of the eluate.

Experiment [2] has as its target T1, kinesin family member C1 (KIFC1) (human). In words: affinity purification with mass spectrometry; anti-KIFC1 antibody (Abcam ab172620) crosslinked to magnetic beads; nuclear lysate of HCC1806 (AA) cells; LC-MS/MS of the eluate.
The target is the same in experiment [3]. In words: affinity purification with mass spectrometry; anti-KIFC1 antibody (Abcam ab172620) crosslinked to magnetic beads; nuclear lysate of BT-549 (EA) cells; LC-MS/MS of the eluate.
Experiment [4] shares this target. The experiment can be described thus: affinity purification with mass spectrometry; anti-KIFC1 antibody (Abcam ab172620) crosslinked to magnetic beads; nuclear lysate of MDA-MB-468 (AA) cells; LC-MS/MS of the eluate.

No constants are given. Whether binding was seen depends on the method and setting. Binding seen in cells or lysates may run through a third protein. These calls come from enrichment with a bait or labelling near it, and not all partners need be listed.

Regarding K2C5_HUMAN (from UniProt P13647 1-590), the binding result in experiment [1] and in experiment [2] was “binds” throughout.

Consider H15_HUMAN (from UniProt P16401 1-226), for which the binding entry in experiment [1] and in experiment [3] was “binds” each time.

Take K2C1_HUMAN (from UniProt P04264 1-644): the binding result in experiment [1] and in experiment [3] was “binds” throughout.

Consider K2C6C_HUMAN (from UniProt P48668 1-564), for which the binding result in experiment [1] and in experiment [2] was “binds” in each case.

For the molecule NPM_HUMAN (from UniProt P06748 1-294), the binding entry in experiment [1] was “binds”.

Turning to K2C6A_HUMAN (from UniProt P02538 1-564), the binding result in experiment [1] and in experiment [2] was “binds” each time.

On to K22E_HUMAN (from UniProt P35908 1-639), for which the binding result in experiment [1], in experiment [2] and in experiment [3] was “binds” each time.

On to K1C10_HUMAN (from UniProt P13645 1-584), for which the binding result in experiment [1], in experiment [2] and in experiment [3] was “binds” throughout.

H13_HUMAN (from UniProt P16402 1-221): the binding entry in experiment [1] and in experiment [3] was “binds” each time.

For H12_HUMAN (from UniProt P16403 1-213), the binding entry in experiment [1] and in experiment [3] was “binds” in each case.

Regarding K2C6B_HUMAN (from UniProt P04259 1-564), the binding entry in experiment [1], in experiment [4], in experiment [2] and in experiment [3] was “binds” each time.

B1: K1C9_HUMAN (protein, UniProt P35527 1-623)
chain: MSCRQFSSSYLSRSGGGGGGGLGSGGSIRSSYSRFSSSGGGGGGGRFSSSSGYGGGSSRVCGRGGGGSFGYSYGGGSGGGFSASSLGGGFGGGSRGFGGASGGGYSSSGGFGGGFGGGSGGGFGGGYGSGFGGFGGFGGGAGGGDGGILTANEKSTMQELNSRLASYLDKVQALEEANNDLENKIQDWYDKKGPAAIQKNYSPYYNTIDDLKDQIVDLTVGNNKTLLDIDNTRMTLDDFRIKFEMEQNLRQGVDADINGLRQVLDNLTMEKSDLEMQYETLQEELMALKKNHKEEMSQLTGQNSGDVNVEINVAPGKDLTKTLNDMRQEYEQLIAKNRKDIENQYETQITQIEHEVSSSGQEVQSSAKEVTQLRHGVQELEIELQSQLSKKAALEKSLEDTKNRYCGQLQMIQEQISNLEAQITDVRQEIECQNQEYSLLLSIKMRLEKEIETYHNLLEGGQEDFESSGAGKIGLGGRGGSGGSYGRGSRGGSGGSYGGGGSGGGYGGGSGSRGGSGGSYGGGSGSGGGSGGGYGGGSGGGHSGGSGGGHSGGSGGNYGGGSGSGGGSGGGYGGGSGSRGGSGGSHGGGSGFGGESGGSYGGGEEASGSGGGYGGGSGKSSHS
Consider B1, for which the binding result in experiment [1] and in experiment [2] was “binds” throughout.

B2: PIP_HUMAN (protein, UniProt P12273 29-146)
chain: QDNTRKIIIKNFDIPKSVRPNDEVTAVLAVQTELKECMVVKTYLISSIPLQGAFNYKYTACLCDDNPKTFYWDFYTNRTVQIAAVVDVIRELGICPDDAAVIPIKNNRFYTIEILKVE
B2: the binding entry in experiment [1] is listed as “binds”.
